The record followed here is paper PMC10781586.

Protein sequences, listed by entry. Tags and fused reporters are not part of them.
UniProt P17918: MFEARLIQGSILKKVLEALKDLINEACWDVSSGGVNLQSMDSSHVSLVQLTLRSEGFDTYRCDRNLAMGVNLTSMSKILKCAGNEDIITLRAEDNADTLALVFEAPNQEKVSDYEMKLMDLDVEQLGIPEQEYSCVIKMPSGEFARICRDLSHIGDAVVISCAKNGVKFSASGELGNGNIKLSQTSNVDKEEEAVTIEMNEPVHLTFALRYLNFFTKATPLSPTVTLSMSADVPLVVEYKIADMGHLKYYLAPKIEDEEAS
UniProt P22227: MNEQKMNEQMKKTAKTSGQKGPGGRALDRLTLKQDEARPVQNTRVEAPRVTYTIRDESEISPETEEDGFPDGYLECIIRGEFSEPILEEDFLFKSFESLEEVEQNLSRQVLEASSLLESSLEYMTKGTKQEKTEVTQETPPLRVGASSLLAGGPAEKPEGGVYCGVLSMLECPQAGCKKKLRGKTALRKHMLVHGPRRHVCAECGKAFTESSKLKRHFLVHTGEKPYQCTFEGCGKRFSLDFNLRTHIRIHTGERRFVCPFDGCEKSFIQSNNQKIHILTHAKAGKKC

For assay [1], the target named is T1, 3xHA-TurboID-RNF12 (mouse) (UniProt Q9WTV7).
T1 sequence: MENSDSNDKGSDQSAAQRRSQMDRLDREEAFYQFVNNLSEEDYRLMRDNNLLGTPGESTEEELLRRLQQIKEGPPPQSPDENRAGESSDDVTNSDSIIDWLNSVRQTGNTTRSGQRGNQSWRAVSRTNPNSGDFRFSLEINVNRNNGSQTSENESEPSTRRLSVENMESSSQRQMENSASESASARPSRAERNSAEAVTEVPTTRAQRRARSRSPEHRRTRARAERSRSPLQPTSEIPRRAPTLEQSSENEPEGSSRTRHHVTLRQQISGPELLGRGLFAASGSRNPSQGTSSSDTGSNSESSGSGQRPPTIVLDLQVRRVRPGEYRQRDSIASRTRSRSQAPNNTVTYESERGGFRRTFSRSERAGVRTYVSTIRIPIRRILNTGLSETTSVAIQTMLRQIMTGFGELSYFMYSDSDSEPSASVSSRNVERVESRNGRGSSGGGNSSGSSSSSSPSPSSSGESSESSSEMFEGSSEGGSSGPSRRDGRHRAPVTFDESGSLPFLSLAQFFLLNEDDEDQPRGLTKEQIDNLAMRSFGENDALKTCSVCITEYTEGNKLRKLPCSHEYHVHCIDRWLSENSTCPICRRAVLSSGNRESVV
Put plainly: proximity labelling; 3xHA-TurboID-RNF12 against 3xHA-TurboID control in Rlim+/y mESCs, triplicate; doxycycline 18 h, then 10 uM MG132 with 50 uM biotin 4 h; lysis in 8 M urea, 50 mM Tris pH 7.4; streptavidin pull-down and mass spectrometry; hits labelled >twofold over control.

The target of assay [2] is T1, 3xHA-TurboID-RNF12 (mouse). The assay is described as above. This is another data set of the same source.

Like-named read-outs stand apart in the source and are kept apart here. No constants are given. Whether binding was seen depends on the method and setting. In cells and extracts the contact can be indirect. A yes stands for co-enrichment or nearness to the bait. Other partners may have been found.

On to “PCNA, endogenous in mESCs (from UniProt P17918 1-261)”, for which, in assay [1], the binding result is reported as “binds”. The same measure, in the same setting: then “REX1 (ZFP42), endogenous in mESCs (from UniProt P22227 1-288)”, with “binds”.

B1: WRNIP1, endogenous in mESCs (protein, UniProt Q91XU0 1-660)
chain: MEVSGPEDDPFLSQLHQVQCPVCQQMMPAAHINSHLDRCLLLHPAGHAEPAAGSHRAGERAKGPSPPGAKRRRLSESSALKQPATPTAAESSEGEGEEGDDGGETESRESYDAPPTPSGARLIPDFPVARSSSPARKGMGKRPAAAAAAGSASPRSWDEAEAQEEEEAGVDGDGDADVDGEDDPGHWDADAADASFGVSAGRAHPRALAAEEIRQMLEGKPLADKMRPDTLQDYIGQSRAVGQETLLRSLLEANEIPSLILWGPPGCGKTTLAHIIANNSKKHSIRFVTLSATNAKTNDVRDVIKQAQNEKSFFKRKTILFIDEIHRFNKSQQDTFLPHVECGTITLIGATTENPSFQVNAALLSRCRVIVLEKLPVEAMVTILMRAINSLGIHVLDSSRPTDPLSHSSNCSSEPSVFIEDKAVDTLAYLSDGDARTGLNGLQLAVLARLSSRKVFCKKSGQTYSPSRVLITENDVKEGLQRSHILYDRAGEEHYNCISALHKAMRGSDQNASLYWLARMLEGGEDPLYVARRLVRFASEDIGLADPSALAQAVAAYQGCHFIGMPECEVLLAQCVVYFARAPKSIEVYSAYNNVKACLRSHQGPLPPVPLHLRNAPTRLMKDLGYGKGYKYNPMYSEPVDQDYLPEELRGVDFFKQRRC
For the molecule B1, in assay [2], the binding entry is “binds”.
